Results deposited as PubChem BioAssay AID652243 (Drosophila RNAi Screening Center, 2013)
The deposit covers about 24,000 reagents; shown is an unselected part of those with a known target gene and a result. In the full data, 246 (1%) were called active. 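Plates not normalised; calls are printed but the firefly/Renilla ratio behind them is not deposited; fold cut for lowering reported inconsistently.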 Raw values vary from plate to plate and are shown uncorrected. Entries without a mark were called inactive. Reagents against one gene are numbered here. A plus sign joins genes that one reagent is predicted to hit. Not given: the amount of reagent.

- Test: 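Fly regulators of androgen-dependent reporter output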 (primary screen)
- System: Drosophila S2R+ cells
- Knock-down reagent: long dsRNA against Drosophila genes
- Duration: 72 h (48 h, then 24 h hormone)
- Treatment: synthetic androgen R1881 at 10 nM for 24 h
- Detection: 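Firefly light from an androgen-responsive reporter and Renilla control light per well, raw and unnormalised, for each of two replicates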
- Direction: firefly reporter light: higher = more light from androgen-responsive reporter; Renilla control light: higher = more constitutive control signal (cell number, transfection)
- Rule for the call: 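Hit when the log firefly-to-Renilla ratio dropped or increased by a fixed fold versus the mean of GFP or LacZ controls across duplicate plates; lowering cut given as 1.5 and as 3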
- Meaning of the calls: active = hit: reporter lowered or raised; inactive = no hit

gene	reagent no.	firefly reporter light, replicate 1	firefly reporter light, replicate 2	Renilla control light, replicate 1	Renilla control light, replicate 2
CG10209 (GeneID 36652)	1	1.12e6	8.03e5	2.98e6	2.40e6
Arc42 (GeneID 42364)	1	3.16e5	2.62e5	2.71e6	2.75e6
Arc42 (GeneID 42364)	2	4.90e5	3.99e5	2.22e6	2.30e6
Gr66a (GeneID 38935)	1	1.47e5	1.27e5	2.29e6	1.57e6
AMPdeam (GeneID 32352)	1	39200	46894	3.85e5	2.27e5
AMPdeam (GeneID 32352)	2	6.31e5	5.38e5	4.05e6	3.51e6
AMPdeam (GeneID 32352)	3	4.98e5	6.86e5	3.99e6	4.41e6
AIF (GeneID 33390)	1	8.74e5	6.32e5	3.22e6	1.86e6
bol (GeneID 39049)	1	2.16e5	1.92e5	5.41e5	6.72e5
bol (GeneID 39049)	2	3.03e5	2.79e5	3.64e6	3.00e6
bol (GeneID 39049)	3	1.69e5	1.59e5	3.57e6	2.01e6
bol (GeneID 39049)	4	3.71e5	2.75e5	8.45e5	9.17e5
CG11369 (GeneID 31675)	1	2.78e5	4.41e5	2.40e6	3.73e6
CG34281 (GeneID 50039)	1	2.71e5	2.36e5	2.87e6	2.81e6
CG34281 (GeneID 50039)	2	8.64e5	7.35e5	1.16e6	9.96e5
Hacd2 (GeneID 34762)	1	2.36e5	2.23e5	1.51e6	1.47e6
CG31156 (GeneID 42669)	1	25329	44580	3.24e5	3.48e5
CG31156 (GeneID 42669)	2	2.75e5	3.31e5	2.71e6	2.82e6
Vml (GeneID 5740271)	1	1.06e6	8.41e5	6.57e5	5.21e5
Vml (GeneID 5740271)	2	3.06e5	3.57e5	3.12e6	3.07e6
Vml (GeneID 5740271)	3	5.74e5	5.84e5	8.65e5	8.30e5
Vml (GeneID 5740271)	4	6.28e5	5.70e5	1.44e6	1.18e6
Rexo5 (GeneID 38740)	1	1.61e5	1.15e5	1.29e6	1.36e6
DnaJ-H (GeneID 34707)	1	2.63e5	2.45e5	1.58e6	1.71e6
CG13630 (GeneID 42943)	1	67551	68120	8.08e5	8.33e5
Nufip (GeneID 40043)	1	97682	50308	6.42e5	3.25e5
CG14687 (GeneID 41297)	1	4.37e5	4.61e5	2.20e6	1.66e6
CG14687 (GeneID 41297)	2	3.32e5	3.29e5	5.86e5	5.86e5
CG15153 (GeneID 35080)	1	1.25e5	1.57e5	1.54e6	1.52e6
CG15153 (GeneID 35080)	2	3.35e5	2.78e5	7.92e5	5.99e5
Gpxl (GeneID 37194)	1	55883	73099	6.39e5	9.64e5
CG30457 (GeneID 36940)	1	4.49e5	6.68e5	1.38e6	2.45e6
CG30457 (GeneID 36940)	2	4.35e5	7.07e5	1.38e6	2.38e6
CG12560 (GeneID 34092)	1	2.61e5	3.00e5	1.90e6	2.17e6
GstE13 (GeneID 35928)	1	1.09e6	8.06e5	1.38e6	8.88e5
hoip (GeneID 44173)	1	88569	90167	3.45e5	2.99e5
CG18635 (GeneID 37031)	1	3.56e5	5.69e5	2.45e6	3.51e6
CG18635 (GeneID 37031)	2	4.73e5	3.21e5	1.10e6	8.05e5
CG9498 (GeneID 33885)	1	1.68e5	1.47e5	1.29e6	1.12e6
Mob2 (GeneID 39293)	1	66025 (active)	43730	2.62e5	2.73e5
Mob2 (GeneID 39293)	2	1.65e5	1.87e5	4.21e5	3.82e5
Mob2 (GeneID 39293)	3	1.26e6	1.28e6	1.74e6	1.94e6
MstProx + Mst84Da	1	70875	66223	1.49e6	1.75e6
Dera (GeneID 36358)	1	7.62e5	7.53e5	2.44e6	2.76e6
Dera (GeneID 36358)	2	6.54e5	8.77e5	2.05e6	2.42e6
Dera (GeneID 36358)	3	3.25e5	3.40e5	6.67e5	6.82e5
CG4496 (GeneID 34000)	1	1.42e5	1.22e5	9.41e5	8.58e5
CG32437 (GeneID 40366)	1	2.82e5	2.69e5	3.24e6	2.56e6
CG32437 (GeneID 40366)	2	5.55e5	5.28e5	1.90e6	1.84e6
CG32437 (GeneID 40366)	3	3.55e5	3.50e5	7.57e5	6.30e5
Sym (GeneID 40709)	1	53230	31752	4.40e5	4.33e5
Sym (GeneID 40709)	2	4.64e5	5.23e5	1.16e6	1.18e6
CG13248 (GeneID 40254)	1	3.72e5	2.47e5	3.03e6	2.30e6
CG13248 (GeneID 40254)	2	8.58e5	9.34e5	1.10e6	8.07e5
gammaCOP (GeneID 43717)	1	2.07e5	2.13e5	1.35e6	2.36e6
gammaCOP (GeneID 43717)	2	6.29e5	3.75e5	1.47e6	1.65e6
CG13386 (GeneID 34165)	1	2.11e5	1.88e5	1.52e6	1.40e6
CG13386 (GeneID 34165)	2	3.18e5	4.01e5	8.93e5	1.16e6
